# Values quoted from earlier work, collected in patent publication US20250114337A1, “METHODS FOR VASCULAR REGENERATION AND WOUND TREATMENT” (THE METHODIST HOSPITAL, priority 2022, published 2025).
# At least one structure is not confirmed: it was looked up by name or label, or the drawing left a doubt.
# Test system: ischemic hindlimb model
# Conditions: Meng et al. 2020, cited from earlier work
# [1] = associated with disappearance of the cells
structure (smiles),measurement,setting,value
C[C@@H]1C[C@H]2[C@@H]3CCC4=CC(=O)C=C[C@]4(C)[C@@]3(F)[C@@H](O)C[C@]2(C)[C@@]1(O)C(=O)CO [dexamethasone],YFP+CD11b- fibroblasts transdifferentiated into endothelial cells (population),,abolished
same,clinical scores,[1],worsening
same,perfusion recovery,[1],reduction
